# Assay results reported in PMC8213676.
# Sequences of proteins named here, by UniProt entry; tags and fusion partners are left off. A change or cut given only in a name is not applied to a line headed by its entry.
# UniProt Q6Z156: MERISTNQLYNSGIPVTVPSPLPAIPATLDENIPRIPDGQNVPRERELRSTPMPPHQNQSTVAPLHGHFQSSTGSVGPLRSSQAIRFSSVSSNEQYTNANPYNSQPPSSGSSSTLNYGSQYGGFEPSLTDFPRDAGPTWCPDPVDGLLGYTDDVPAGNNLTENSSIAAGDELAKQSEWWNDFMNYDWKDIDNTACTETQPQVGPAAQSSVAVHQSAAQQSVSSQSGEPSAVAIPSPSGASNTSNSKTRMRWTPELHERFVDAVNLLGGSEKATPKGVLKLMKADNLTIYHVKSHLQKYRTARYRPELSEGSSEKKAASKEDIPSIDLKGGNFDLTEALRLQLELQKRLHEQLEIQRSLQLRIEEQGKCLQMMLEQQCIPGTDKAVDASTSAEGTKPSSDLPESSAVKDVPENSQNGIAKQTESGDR
# For at least one entry, the source does not settle the construct or the ends of the probe. A weaker result is weaker than the reference pair of the same experiment.
# Target: OsPHR2-6XHIS (Oryza sativa) (UniProt Q6Z156)
# Assay: EMSA
# Details: 15 mM HEPES pH 8.0, 30 mM KCl, 1 mM MgCl2, 0.2 mM EDTA, 0.02 mM DTT, 0.6% glycerol, 1 ug poly(dI-dC) in 20 ul, 20 °C 30 min (1 h with 15 mM NaH2PO4 for inhibition assay), recombinant protein, residues 1-426, protein details: 6xHis (pET28a), label: DIG 3' end
sequence,measurement,setting,value
TATCCCCGTCACGAATATTCCTCTTCCTCC (double strand) [OsSPX2 promoter P1BS probe],binding result,"plus 7.5 ug OsSPX1-6XHIS and 7.5 ug OsJAZ11-GST, 15 mM NaH2PO4, no effect of OsJAZ11 on inhibition",binds more weakly
same,binding result,"plus 7.5 ug OsSPX1-6XHIS, 15 mM NaH2PO4",binds more weakly
